Values of other authors in patent US8026229B2, “Antitumor-active 2-alkoxyestradiol sulfamates” (Sterix Limited, priority 2001, dated 2011).
Some entries share one result that the patent states for a list of compounds. At least one structure is not confirmed: it was looked up by name or label, or the drawing left a doubt. Some compounds share one range, which may span the group rather than tell each member.

System: MCF-7 breast cancer cells
Settings: at 10 μM, MCF-7 cells; cited from earlier work

Structure (SMILES) | Inhibition of the absorption of glucose [%]
COc1cc2c(cc1O)CCC1C2CC[C@@]2(C)C1CC[C@@H]2O (some centres unmarked) [2-Methoxyestradiol] | 25 to 49
COc1cc2c(cc1O)CC[C@@H]1[C@@H]2CC[C@]2(C)C(=O)CC[C@@H]12 [2-methoxyestrone] | 25 to 49
